In publication PMC4600748:
No constants are given. Whether binding was seen depends on the method and setting. In cells and extracts the contact can be indirect. Some entries that bind do so weakly or less than the wild type. For some assays here: Sequences can lack the tags named with a protein. One block for each binder: values may come before it.

Chains of the proteins cited; added tags and fusions are not shown. Residues count along the entry.
UniProt Q00657, residues 30-2326: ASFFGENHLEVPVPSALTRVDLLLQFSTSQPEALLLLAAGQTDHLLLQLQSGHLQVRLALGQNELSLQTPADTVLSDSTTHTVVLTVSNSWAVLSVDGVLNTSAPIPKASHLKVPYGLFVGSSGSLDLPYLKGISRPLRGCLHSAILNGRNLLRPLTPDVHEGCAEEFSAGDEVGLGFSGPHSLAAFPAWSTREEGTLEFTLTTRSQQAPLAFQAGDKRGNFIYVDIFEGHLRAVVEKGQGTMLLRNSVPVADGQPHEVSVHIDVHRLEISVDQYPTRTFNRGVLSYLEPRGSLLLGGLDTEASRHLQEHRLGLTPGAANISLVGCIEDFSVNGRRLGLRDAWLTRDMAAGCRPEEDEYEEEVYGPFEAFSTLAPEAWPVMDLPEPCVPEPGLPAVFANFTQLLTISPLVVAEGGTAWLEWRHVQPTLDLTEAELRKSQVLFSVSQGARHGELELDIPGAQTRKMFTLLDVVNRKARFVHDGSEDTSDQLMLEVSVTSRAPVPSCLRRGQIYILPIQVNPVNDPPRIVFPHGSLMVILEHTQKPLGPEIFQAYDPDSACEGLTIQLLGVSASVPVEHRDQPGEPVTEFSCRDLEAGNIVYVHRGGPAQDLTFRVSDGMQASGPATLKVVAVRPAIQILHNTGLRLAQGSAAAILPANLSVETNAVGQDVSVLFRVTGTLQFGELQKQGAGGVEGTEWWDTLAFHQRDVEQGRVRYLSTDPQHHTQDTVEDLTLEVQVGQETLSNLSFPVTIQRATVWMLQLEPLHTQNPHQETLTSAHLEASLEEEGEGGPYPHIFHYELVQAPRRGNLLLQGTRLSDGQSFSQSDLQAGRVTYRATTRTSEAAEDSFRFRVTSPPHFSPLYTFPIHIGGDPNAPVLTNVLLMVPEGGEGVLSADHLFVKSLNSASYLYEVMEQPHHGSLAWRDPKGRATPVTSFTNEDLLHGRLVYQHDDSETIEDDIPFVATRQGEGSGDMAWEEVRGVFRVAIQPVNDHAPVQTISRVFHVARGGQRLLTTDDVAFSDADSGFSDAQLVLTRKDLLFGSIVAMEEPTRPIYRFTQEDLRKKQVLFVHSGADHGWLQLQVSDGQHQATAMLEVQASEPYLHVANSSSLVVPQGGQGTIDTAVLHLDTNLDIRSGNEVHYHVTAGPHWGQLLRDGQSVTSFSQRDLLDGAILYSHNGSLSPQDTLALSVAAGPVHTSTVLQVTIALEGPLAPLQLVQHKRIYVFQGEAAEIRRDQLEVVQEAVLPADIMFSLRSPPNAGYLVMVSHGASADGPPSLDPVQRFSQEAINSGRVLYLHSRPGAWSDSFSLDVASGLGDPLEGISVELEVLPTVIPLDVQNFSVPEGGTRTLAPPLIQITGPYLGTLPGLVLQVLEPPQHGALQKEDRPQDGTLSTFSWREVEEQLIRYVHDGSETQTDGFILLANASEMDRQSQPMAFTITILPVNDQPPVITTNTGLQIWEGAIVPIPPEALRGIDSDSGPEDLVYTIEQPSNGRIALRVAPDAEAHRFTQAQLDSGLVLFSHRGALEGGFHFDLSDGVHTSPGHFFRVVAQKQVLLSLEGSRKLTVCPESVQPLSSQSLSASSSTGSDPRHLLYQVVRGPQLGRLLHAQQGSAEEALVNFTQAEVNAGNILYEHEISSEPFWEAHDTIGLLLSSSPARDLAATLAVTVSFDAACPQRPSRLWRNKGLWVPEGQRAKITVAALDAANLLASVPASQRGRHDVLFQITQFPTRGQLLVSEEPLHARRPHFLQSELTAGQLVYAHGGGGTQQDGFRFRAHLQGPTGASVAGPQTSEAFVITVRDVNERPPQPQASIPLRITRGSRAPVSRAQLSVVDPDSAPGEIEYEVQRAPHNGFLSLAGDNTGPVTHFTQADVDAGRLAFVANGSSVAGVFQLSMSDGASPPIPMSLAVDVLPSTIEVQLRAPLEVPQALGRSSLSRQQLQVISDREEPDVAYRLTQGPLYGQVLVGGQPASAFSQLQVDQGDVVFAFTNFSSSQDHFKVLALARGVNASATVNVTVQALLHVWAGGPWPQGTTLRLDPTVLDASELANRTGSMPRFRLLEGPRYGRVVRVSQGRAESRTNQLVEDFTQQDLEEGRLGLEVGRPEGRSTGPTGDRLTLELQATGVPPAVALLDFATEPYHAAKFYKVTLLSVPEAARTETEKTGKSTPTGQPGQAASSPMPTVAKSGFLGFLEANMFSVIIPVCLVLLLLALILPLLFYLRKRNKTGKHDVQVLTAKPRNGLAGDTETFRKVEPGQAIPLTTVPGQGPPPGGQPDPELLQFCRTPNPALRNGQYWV

How the values were obtained:
[1] = biological target: T1, Stonin1, endogenous (mouse lung) (mouse (endogenous in lung)) (UniProt Q8CDJ8); experiment: co-IP; bead-coupled Stonin1-specific antibodies incubated with WT and Stonin1-/- mouse lung lysate, 1-4 h at 4 °C; immunoblot
T1 sequence: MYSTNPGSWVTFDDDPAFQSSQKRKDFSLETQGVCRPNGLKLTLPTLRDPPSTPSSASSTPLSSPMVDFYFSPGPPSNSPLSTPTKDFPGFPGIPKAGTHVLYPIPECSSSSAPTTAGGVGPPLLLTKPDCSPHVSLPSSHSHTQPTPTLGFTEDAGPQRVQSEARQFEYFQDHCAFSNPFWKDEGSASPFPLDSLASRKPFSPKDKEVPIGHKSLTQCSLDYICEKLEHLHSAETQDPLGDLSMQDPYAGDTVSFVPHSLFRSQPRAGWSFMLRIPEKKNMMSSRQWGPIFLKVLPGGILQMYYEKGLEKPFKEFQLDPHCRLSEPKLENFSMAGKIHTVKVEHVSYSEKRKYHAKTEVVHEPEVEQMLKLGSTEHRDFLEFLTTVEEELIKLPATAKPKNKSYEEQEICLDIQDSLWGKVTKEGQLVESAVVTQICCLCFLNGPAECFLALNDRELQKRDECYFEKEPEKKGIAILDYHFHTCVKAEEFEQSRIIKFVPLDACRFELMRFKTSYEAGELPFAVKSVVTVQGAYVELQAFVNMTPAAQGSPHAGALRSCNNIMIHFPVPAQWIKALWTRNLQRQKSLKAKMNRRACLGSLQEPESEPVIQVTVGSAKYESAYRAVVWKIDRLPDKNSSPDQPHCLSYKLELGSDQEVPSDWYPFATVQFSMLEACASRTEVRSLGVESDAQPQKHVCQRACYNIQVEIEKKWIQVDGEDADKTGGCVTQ

[2] = biological target: NG2, full-length, overexpressed (UniProt Q00657); experiment: co-IP; beads coupled to NG2-specific antibodies incubated with lysates of HEK293T cells overexpressing full-length NG2 and HA-tagged Stonin1 variants; immunoblot with NG2 and HA antibodies

- binding [1]: binds
B1: vinculin, endogenous (mouse lung) (protein, UniProt Q64727 1-1066)
chain: MPVFHTRTIESILEPVAQQISHLVIMHEEGEVDGKAIPDLTAPVAAVQAAVSNLVRVGKETVQTTEDQILKRDMPPAFIKVENACTKLVQAAQMLQSDPYSVPARDYLIDGSRGILSGTSDLLLTFDEAEVRKIIRVCKGILEYLTVAEVVETMEDLVTYTKNLGPGMTKMAKMIDERQQELTHQEHRVMLVNSMNTVKELLPVLISAMKIFVTTKNSKNQGIEEALKNRNFTVEKMSAEINEIIRVLQLTSWDEDAWASKDTEAMKRALASIDSKLNQAKGWLRDPNASPGDAGEQAIRQILDEAGKVGELCAGKERREILGTCKMLGQMTDQVADLRARGQGASPVAMQKAQQVSQGLDVLTAKVENAARKLEAMTNSKQSIAKKIDAAQNWLADPNGGPEGEEQIRGALAEARKIAELCDDPKERDDILRSLGEIAALTSKLGDLRRQGKGDSPEARALAKQVATALQNLQTKTNRAVANSRPAKAAVHLEGKIEQAQRWIDNPTVDDRGVGQAAIRGLVAEGHRLANVMMGPYRQDLLAKCDRVDQLTAQLADLAARGEGESPQARALASQLQDSLKDLKAQMQEAMTQEVSDVFSDTTTPIKLLAVAATAPPDAPNREEVFDERAANFENHSGRLGATAEKAAAVGTANKSTVEGIQASVKTARELTPQVISAARILLRNPGNQAAYEHFETMKNQWIDNVEKMTGLVDEAIDTKSLLDASEEAIKKDLDKCKVAMANIQPQMLVAGATSIARRANRILLVAKREVENSEDPKFREAVKAASDELSKTISPMVMDAKAVAGNISDPGLQKSFLDSGYRILGAVAKVREAFQPQEPDFPPPPPDLEQLRLTDELAPPKPPLPEGEVPPPRPPPPEEKDEEFPEQKAGEVINQPMMMAARQLHDEARKWSSKGNDIIAAAKRMALLMAEMSRLVRGGSGTKRALIQCAKDIAKASDEVTRLAKEVAKQCTDKRIRTNLLQVCERIPTISTQLKILSTVKATMLGRTNISDEESEQATEMLVHNAQNLMQSVKETVREAEAASIKIRTDAGFTLRWVRKTPWYQ

- binding [2]: binds
B2: HA-tagged Stonin1-μHD (Stonin1-405-730) (domain or fragment, UniProt Q8CDJ8 405-730)
chain: YEEQEICLDIQDSLWGKVTKEGQLVESAVVTQICCLCFLNGPAECFLALNDRELQKRDECYFEKEPEKKGIAILDYHFHTCVKAEEFEQSRIIKFVPLDACRFELMRFKTSYEAGELPFAVKSVVTVQGAYVELQAFVNMTPAAQGSPHAGALRSCNNIMIHFPVPAQWIKALWTRNLQRQKSLKAKMNRRACLGSLQEPESEPVIQVTVGSAKYESAYRAVVWKIDRLPDKNSSPDQPHCLSYKLELGSDQEVPSDWYPFATVQFSMLEACASRTEVRSLGVESDAQPQKHVCQRACYNIQVEIEKKWIQVDGEDADKTGGCVTQ
